This passage reports isolated mass, isolated yield and step yield results from US8337813B2 (Northwestern University, priority 2007, dated 2012).

A short description of data set [1]: general procedure: Fmoc solid-phase peptide synthesis; Wang resin; HATU/DIPEA. The conditions noted are these: whole synthesis; for isolated yield: overall yield after 19 steps.
The nature of data set [2]: general procedure: Fmoc solid-phase peptide synthesis; Wang resin preloaded with fmoc-alanine (NovaBiochem), 100-200 mesh, 0.68 mmol/g; HATU/DIPEA. The conditions noted are these: late stage modification step.
Setting [3] is: scale 1.0001 g fmoc-ala-Wang resin (0.68 mmol/g).

For the substance “Diethylenetriaminepentaacetic Acid-Ala-Pro-Leu-Ala-Leu-Trp-Ala-PEG3-Ala”, the isolated mass in data set [1] is on record as 107.87 mg. This substance also displayed an isolated yield in data set [1] (scale of the general procedure 1.09347 g resin, 0.68 mmol/g resin loading) of 10%.

In data set [2], “Gadolinium(III)-diethylenetriaminepentaacetic Acid-Ala-Pro-Leu-Ala-Leu-Trp-Ala-PEG3-Ala (APLALWA; Gd-DTPA N-cap, PEG3-Ala C-terminus; printed: Ala-Pro-Leu-Ala-Leu-Trp-Ala-)” had a step yield of 86%.

In data set [1] (setting [3]), “Diethylenetriaminepentaacetic Acid-Ala-Pro-Leu-Ala-Leu-Trp-Ala-PEG6-Ala” registered an isolated yield of 10% and an isolated mass of 106.54 mg.
